Data source: PubChem BioAssay AID1259405 (NCATS, 2018)

Test: 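Knock-downs that lift recombinant protein yield in hamster ovary cells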 (primary screen)
System: Chinese hamster CHO-K1 ovary cells with stable secreted eGFP expression
Reagent: single siRNA against mouse genes, 0.8 pmol siRNA per well (2 µl of 400 nM stock)
Duration: 3 days
Read-out: 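Per-well intracellular GFP measured by laser scanning cytometry, plus viability from ATP luminescence, each relative to plate median of non-targeting control wells, in %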
Reading the numbers: GFP, % of control: higher = more GFP per well, higher productivity; viability (ATP), % of control: higher = more viable cells (more ATP)
Active means: 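a knock-down is called active if GFP reaches 120% or more of non-targeting control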
The whole screen tested about 50,000 reagents; below is a part drawn at random. About 4,000 of them (8%) were called active. 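Mouse siRNA library applied to hamster cells; one well for each siRNA.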 The numbers tell different reagents against one gene apart.

Gene	siRNA no.	GFP, % of control	viability (ATP), % of control	activity call
Grsf1 (G-rich RNA sequence binding factor 1)	1	76.5	61.7	inactive
Grsf1 (G-rich RNA sequence binding factor 1)	2	61.6	67.4	inactive
Grsf1 (G-rich RNA sequence binding factor 1)	3	64.6	68	inactive
Alg2 (ALG2 alpha-1,3/1,6-mannosyltransferase)	1	86.5	97.5	inactive
Alg2 (ALG2 alpha-1,3/1,6-mannosyltransferase)	2	98.8	155	inactive
Alg2 (ALG2 alpha-1,3/1,6-mannosyltransferase)	3	135	102	active
Fbxo5 (F-box protein 5)	1	61.5	75.3	inactive
Fbxo5 (F-box protein 5)	2	89.4	72.8	inactive
Fbxo5 (F-box protein 5)	3	99.8	84	inactive
Fbxw20 (F-box and WD-40 domain protein 20)	1	118	79.2	inactive
Fbxw20 (F-box and WD-40 domain protein 20)	2	106	74.4	inactive
Fbxw20 (F-box and WD-40 domain protein 20)	3	120	75.1	active
Rbm48 (RNA binding motif protein 48)	1	61.7	63.1	inactive
Rbm48 (RNA binding motif protein 48)	2	98.7	96.1	inactive
Rbm48 (RNA binding motif protein 48)	3	137	129	active
Vmn1r58 (vomeronasal 1 receptor 58)	1	79.7	82.7	inactive
Vmn1r58 (vomeronasal 1 receptor 58)	2	75.2	67.6	inactive
Vmn1r58 (vomeronasal 1 receptor 58)	3	54.2	70.8	inactive
Dtd2 (D-tyrosyl-tRNA deacylase 2)	1	55.5	85.4	inactive
Dtd2 (D-tyrosyl-tRNA deacylase 2)	2	97.7	102	inactive
Dtd2 (D-tyrosyl-tRNA deacylase 2)	3	124	92.3	active
Fars2 (phenylalanine-tRNA synthetase 2, mitochondrial)	1	93.4	74.8	inactive
Fars2 (phenylalanine-tRNA synthetase 2, mitochondrial)	2	165	159	active
Ifi203 (interferon activated gene 203)	1	73.3	61.3	inactive
Ifi203 (interferon activated gene 203)	2	83.2	76.6	inactive
Ifi203 (interferon activated gene 203)	3	86.2	84.5	inactive
Trdv2-2 (T cell receptor delta variable 2-2)	1	89.6	59.7	inactive
Trdv2-2 (T cell receptor delta variable 2-2)	2	46	69.5	inactive
Trdv2-2 (T cell receptor delta variable 2-2)	3	53.5	79	inactive
Eif3b (eukaryotic translation initiation factor 3, subunit B)	1	54.7	42.9	inactive
Eif3b (eukaryotic translation initiation factor 3, subunit B)	2	19.3	13.2	inactive
Eif3b (eukaryotic translation initiation factor 3, subunit B)	3	63.3	123	inactive
Bola1 (bolA family member 1)	1	117	146	inactive
Bola1 (bolA family member 1)	2	47.6	57.4	inactive
Bola1 (bolA family member 1)	3	206	154	active
Vmn1r26 (vomeronasal 1 receptor 26)	1	63.5	62.8	inactive
Vmn1r26 (vomeronasal 1 receptor 26)	2	99.7	92.8	inactive
Vmn1r26 (vomeronasal 1 receptor 26)	3	120	100	inactive
Trmt2b (TRM2 tRNA methyltransferase 2B)	1	91.7	74.1	inactive
Trmt2b (TRM2 tRNA methyltransferase 2B)	2	57.5	79.4	inactive
Trmt2b (TRM2 tRNA methyltransferase 2B)	3	69.1	77.3	inactive
Azin2 (antizyme inhibitor 2)	1	45.1	67.4	inactive
Azin2 (antizyme inhibitor 2)	2	87.9	99.2	inactive
Azin2 (antizyme inhibitor 2)	3	91.2	78.6	inactive
Galr1 (galanin receptor 1)	1	188	86.8	active
Galr1 (galanin receptor 1)	2	62.6	65.3	inactive
Galr1 (galanin receptor 1)	3	72.4	56.3	inactive
Pramel6 (PRAME like 6)	1	89.2	68.8	inactive
Pramel6 (PRAME like 6)	2	78.4	84.6	inactive
Pramel6 (PRAME like 6)	3	61.3	50.9	inactive
Dnajb7 (DnaJ heat shock protein family (Hsp40) member B7)	1	86.3	61.7	inactive
Dnajb7 (DnaJ heat shock protein family (Hsp40) member B7)	2	145	98.7	active
Dnajb7 (DnaJ heat shock protein family (Hsp40) member B7)	3	58.4	67	inactive
Glipr2 (GLI pathogenesis-related 2)	1	49.7	61.1	inactive
Glipr2 (GLI pathogenesis-related 2)	2	80.2	80.9	inactive
Glipr2 (GLI pathogenesis-related 2)	3	55.2	84.8	inactive
Pop1	1	112	105	inactive
Pop1	2	79.5	72.3	inactive
Pop1	3	92.3	90.7	inactive
Atp2a3 (ATPase, Ca++ transporting, ubiquitous)	1	95.2	89.9	inactive
Atp2a3 (ATPase, Ca++ transporting, ubiquitous)	2	61.6	81.7	inactive
Atp2a3 (ATPase, Ca++ transporting, ubiquitous)	3	47.6	84.9	inactive
Or5b96 (olfactory receptor family 5 subfamily B member 96)	1	124	38.9	active
Or5b96 (olfactory receptor family 5 subfamily B member 96)	2	138	101	active
Or5b96 (olfactory receptor family 5 subfamily B member 96)	3	74.4	77	inactive
Rps9 (ribosomal protein S9)	1	127	43.3	active
Rps9 (ribosomal protein S9)	2	114	60	inactive
Rps9 (ribosomal protein S9)	3	64.1	67.3	inactive
Lrrc4c (leucine rich repeat containing 4C)	1	114	74.3	inactive
Lrrc4c (leucine rich repeat containing 4C)	2	95.2	74.8	inactive
Lrrc4c (leucine rich repeat containing 4C)	3	53.5	85.6	inactive
Rasl2-9 (RAS-like, family 2, locus 9)	1	105	74.2	inactive
Rasl2-9 (RAS-like, family 2, locus 9)	2	91.3	86.3	inactive
Rasl2-9 (RAS-like, family 2, locus 9)	3	64.9	55.3	inactive
Serpinb3b	1	96.4	66.1	inactive
Serpinb3b	2	102	77.7	inactive
Serpinb3b	3	159	101	active
Snx11 (sorting nexin 11)	1	98.5	131	inactive
Snx11 (sorting nexin 11)	2	80.4	74.1	inactive
Klhl8 (kelch-like 8)	1	131	80.9	active
Klhl8 (kelch-like 8)	2	129	115	active
Spry1 (sprouty RTK signaling antagonist 1)	1	43.5	69.7	inactive
Spry1 (sprouty RTK signaling antagonist 1)	2	39.2	35	inactive
Spry1 (sprouty RTK signaling antagonist 1)	3	58.4	68.5	inactive

11 entries already listed, sorted by “viability (ATP), % of control”, descending.
Gene	siRNA no.	GFP, % of control	viability (ATP), % of control	activity call
Rbm48 (RNA binding motif protein 48)	3	137	129	active
Dtd2 (D-tyrosyl-tRNA deacylase 2)	2	97.7	102	inactive
Rbm48 (RNA binding motif protein 48)	2	98.7	96.1	inactive
Dtd2 (D-tyrosyl-tRNA deacylase 2)	3	124	92.3	active
Dtd2 (D-tyrosyl-tRNA deacylase 2)	1	55.5	85.4	inactive
Vmn1r58 (vomeronasal 1 receptor 58)	1	79.7	82.7	inactive
Fbxw20 (F-box and WD-40 domain protein 20)	3	120	75.1	active
Fars2 (phenylalanine-tRNA synthetase 2, mitochondrial)	1	93.4	74.8	inactive
Vmn1r58 (vomeronasal 1 receptor 58)	3	54.2	70.8	inactive
Vmn1r58 (vomeronasal 1 receptor 58)	2	75.2	67.6	inactive
Rbm48 (RNA binding motif protein 48)	1	61.7	63.1	inactive
